For this experiment, the system named is CD8F1 mice, subcutaneous mammary adenocarcinoma, T/C%. Briefly: NCI In Vivo Anticancer Drug Screen. Data for tumor model Mammary Adenocarcinoma CD8F1 (subcutaneous) in CD8F1. Particulars: higher T/C = larger tumour. Put shortly: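 Tumor-bearing mice, transplantable model; readout survival or tumor size; value = treated (T) / vehicle control (C).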

The structures appear in SMILES notation. The list does not hold the whole screen: it is rich in T/C values a quarter to a half above the control, in often repeated tests (any T/C) and in doses without a T/C. Other doses and runs of a compound stand elsewhere. T/C: endpoint of the treated group in % of that of the vehicle group. Schedules are NCI's codes, read here as Q, the interval in days (D) or hours (H), X, the number of doses. Some T/C values are negative: the treated tumours shrank. Some entries hold several experiments; their values stand side by side, smallest first. Some T/C values carry the count of animals alive at the toxicity check (mostly the fifth day); without a count, all were alive then. Some entries give survivors of the animals treated and no T/C: the source holds a T/C of zero for them, seemingly a mark for toxic or unscored doses. Survivors were counted at the toxicity check, usually on the fifth day, unless a day is given; later deaths do not show.

On to `N=C(N)SCc1c2ccccc2c(CSC(=N)N)c2ccccc12`, for which the T/C is 135 % of control (T/C endpoint: median tumor weight (est.), dose: 100.0 mg/kg/injection, schedule: Q07DX005 (ip), vehicle: saline, evaluated on day 30) and 139 % of control (T/C endpoint: median tumor weight change, dose: 50.0 mg/kg/injection, schedule: Q01DX001 (ip), vehicle: suspension in saline, evaluated on day 30).
Take `C=CCNc1nc2c(s1)CCc1cc(OC)c(OC)cc1-2`: the survivor count (T/C endpoint: median tumor weight (est.), dose: 400.0 mg/kg/injection, schedule: Q07DX005 (ip), vehicle: saline with Tween-80) is 5 of 10 on day 30.
In the case of `CC1(C)CC23C4COC(=O)C2CCC1C3CC4=O` (stereo not given), the T/C (T/C endpoint: median tumor weight (est.), dose: 72.0 mg/kg/injection, schedule: Q07DX005 (ip), vehicle: DMSO, evaluated on day 30) is 126 % of control. Besides, under “T/C endpoint: median tumor weight (est.), dose: 144.0 mg/kg/injection, schedule: Q07DX005 (ip), vehicle: DMSO”, the survivor count is reported as 6 of 10 on day 30.
Regarding `O=c1ccc2ccccc2o1`, the survivor count by setting is: (T/C endpoint: median tumor weight change, dose: 250.0 mg/kg/injection, schedule: Q01DX001 (ip), vehicle: Klucel (hydroxypropylcellulose) (HPC)) 2 of 10 on day 36; (T/C endpoint: median tumor weight change, dose: 500.0 mg/kg/injection, schedule: Q01DX001 (ip), vehicle: Klucel (hydroxypropylcellulose) (HPC)) 0 of 10 on day 36; (T/C endpoint: median tumor weight change, dose: 1000.0 mg/kg/injection, schedule: Q01DX001 (ip), vehicle: Klucel (hydroxypropylcellulose) (HPC)) 1 of 10 on day 36.
As to `CCCCn1cnc2c(=S)nc[nH]c21`, the survivor count (T/C endpoint: median tumor weight change, dose: 2000.0 mg/kg/injection, schedule: Q01DX001 (ip), vehicle: saline with Tween-80) is reported as 6 of 10 on day 33.
Take `COC1=C(NC(C)=O)C(=O)c2nc(-c3nc(C(=O)O)c(C)c(-c4ccc(OC)c(OC)c4O)c3N)ccc2C1=O`: the T/C reads like this: (T/C endpoint: median tumor weight change, dose: 25.0 mg/kg/injection, schedule: Q01DX001 (ip), vehicle: Klucel (hydroxypropylcellulose) (HPC), evaluated on day 29) -16 and 219 % of control; (T/C endpoint: median tumor weight change, dose: 25.0 mg/kg/injection, schedule: Q01DX001 (ip), vehicle: Klucel (hydroxypropylcellulose) (HPC), evaluated on day 30) 35 % of control; (T/C endpoint: median tumor weight change, dose: 25.0 mg/kg/injection, schedule: Q01DX001 (ip), vehicle: Klucel (hydroxypropylcellulose) (HPC), evaluated on day 34) 57 % of control; (T/C endpoint: median tumor weight change, dose: 50.0 mg/kg/injection, schedule: Q01DX001 (ip), vehicle: Klucel (hydroxypropylcellulose) (HPC), evaluated on day 29) -17 and 195 % of control; (T/C endpoint: median tumor weight change, dose: 50.0 mg/kg/injection, schedule: Q01DX001 (ip), vehicle: Klucel (hydroxypropylcellulose) (HPC), evaluated on day 30) 6 % of control; (T/C endpoint: median tumor weight change, dose: 50.0 mg/kg/injection, schedule: Q01DX001 (ip), vehicle: Klucel (hydroxypropylcellulose) (HPC), evaluated on day 34) 52 % of control. The T/C (T/C endpoint: median tumor weight change, dose: 100.0 mg/kg/injection, schedule: Q01DX001 (ip), vehicle: Klucel (hydroxypropylcellulose) (HPC), evaluated on day 29) was -61 and 136 % of control; the T/C (T/C endpoint: median tumor weight change, dose: 100.0 mg/kg/injection, schedule: Q01DX001 (ip), vehicle: Klucel (hydroxypropylcellulose) (HPC), evaluated on day 30) was -62 % of control; the T/C (T/C endpoint: median tumor weight change, dose: 100.0 mg/kg/injection, schedule: Q01DX001 (ip), vehicle: Klucel (hydroxypropylcellulose) (HPC), evaluated on day 34) is 34 % of control; the T/C (T/C endpoint: median tumor weight change, dose: 200.0 mg/kg/injection, schedule: Q01DX001 (ip), vehicle: Klucel (hydroxypropylcellulose) (HPC), evaluated on day 29) was -84 % of control [9 of 10 alive on day 29]; the T/C (T/C endpoint: median tumor weight change, dose: 200.0 mg/kg/injection, schedule: Q01DX001 (ip), vehicle: Klucel (hydroxypropylcellulose) (HPC), evaluated on day 30) is -74 % of control; the T/C (T/C endpoint: median tumor weight change, dose: 200.0 mg/kg/injection, schedule: Q01DX001 (ip), vehicle: Klucel (hydroxypropylcellulose) (HPC), evaluated on day 34) is 8 % of control [9 of 10 alive on day 34]. In addition, the survivor count reads like this: (T/C endpoint: median tumor weight change, dose: 200.0 mg/kg/injection, schedule: Q01DX001 (ip), vehicle: Klucel (hydroxypropylcellulose) (HPC)) 6 of 10 on day 29; (T/C endpoint: median tumor weight change, dose: 400.0 mg/kg/injection, schedule: Q01DX001 (ip), vehicle: Klucel (hydroxypropylcellulose) (HPC)) 0 of 10 on day 29, 1 of 10 on day 29, 2 of 10 on day 30, 2 of 10 on day 34; (T/C endpoint: median tumor weight change, dose: 800.0 mg/kg/injection, schedule: Q01DX001 (ip), vehicle: Klucel (hydroxypropylcellulose) (HPC)) 0 of 10 on day 29 and 1 of 10 on day 30.
Consider `Nc1ccc(S(=O)(=O)Nc2cnc3c(Cl)cccc3n2)cc1`, for which the T/C (T/C endpoint: median tumor weight change, dose: 125.0 mg/kg/injection, schedule: Q01DX001 (ip), vehicle: DMSO, evaluated on day 25) was 133 % of control; the T/C (T/C endpoint: median tumor weight change, dose: 250.0 mg/kg/injection, schedule: Q01DX001 (ip), vehicle: DMSO, evaluated on day 29) was 141 % of control; the T/C (T/C endpoint: median tumor weight change, dose: 500.0 mg/kg/injection, schedule: Q01DX001 (ip), vehicle: DMSO, evaluated on day 29) is 139 % of control. The survivor count (T/C endpoint: median tumor weight change, dose: 1000.0 mg/kg/injection, schedule: Q01DX001 (ip), vehicle: DMSO) was 2 of 10 on day 25; the survivor count (T/C endpoint: median tumor weight change, dose: 2000.0 mg/kg/injection, schedule: Q01DX001 (ip), vehicle: DMSO) is 0 of 10 on day 25 and 0 of 10 on day 29.
With `OC(CBr)C(O)C(O)C(O)CBr` (stereo not given), the T/C (T/C endpoint: median tumor weight (est.), dose: 100.0 mg/kg/injection, schedule: Q07DX005 (ip), vehicle: Klucel (hydroxypropylcellulose) (HPC), evaluated on day 30) was 29 [9 of 10 alive], 87 [9 of 10 alive on day 30], 100, 175 % of control; the T/C (T/C endpoint: median tumor weight (est.), dose: 200.0 mg/kg/injection, schedule: Q07DX005 (ip), vehicle: Klucel (hydroxypropylcellulose) (HPC), evaluated on day 30) is 27, 68 [9 of 10 alive on day 30], 84, 118 % of control; the T/C (T/C endpoint: median tumor weight (est.), dose: 400.0 mg/kg/injection, schedule: Q07DX005 (ip), vehicle: Klucel (hydroxypropylcellulose) (HPC), evaluated on day 30) is 75 [9 of 10 alive], 86, 91 % of control; the T/C (T/C endpoint: median tumor weight (est.), dose: 800.0 mg/kg/injection, schedule: Q07DX005 (ip), vehicle: Klucel (hydroxypropylcellulose) (HPC), evaluated on day 30) is 16 [9 of 10 alive], 44, 75 % of control [8 of 10 alive on day 30]. Besides, the survivor count is, setting by setting: (T/C endpoint: median tumor weight (est.), dose: 800.0 mg/kg/injection, schedule: Q07DX005 (ip), vehicle: Klucel (hydroxypropylcellulose) (HPC)) 6 of 10; (T/C endpoint: median tumor weight (est.), dose: 1200.0 mg/kg/injection, schedule: Q07DX005 (ip), vehicle: Klucel (hydroxypropylcellulose) (HPC)) 1 of 10; (T/C endpoint: median tumor weight change, dose: 1200.0 mg/kg/injection, schedule: Q01DX001 (ip), vehicle: Klucel (hydroxypropylcellulose) (HPC)) 5 of 10 on day 28.
Consider `Cc1ccccc1-[n+]1noc(N)n1`, for which the survivor count (T/C endpoint: median tumor weight change, dose: 250.0 mg/kg/injection, schedule: Q01DX001 (ip), vehicle: water) was 0 of 10 on day 29 and the survivor count (T/C endpoint: median tumor weight change, dose: 500.0 mg/kg/injection, schedule: Q01DX001 (ip), vehicle: water) is 0 of 10 on day 29.
With `COc1ccc(C(=O)C(CN(C)C)CN(C)C)cc1`, the survivor count is given as 3 of 10 on day 34 (T/C endpoint: median tumor weight change, dose: 62.5 mg/kg/injection, schedule: Q01DX001 (ip), vehicle: saline) and 1 of 10 on day 34 (T/C endpoint: median tumor weight change, dose: 125.0 mg/kg/injection, schedule: Q01DX001 (ip), vehicle: saline).
With `COc1cccc2c1C(=O)c1c(O)c3c(c(O)c1C2=O)C[C@@](O)(/C(C)=N\NC(=O)CO)C[C@@H]3OC1CC(N)C(O)C(C)O1` (stereo not given in full), the survivor count (T/C endpoint: median tumor weight (est.), dose: 8.0 mg/kg/injection, schedule: Q07DX005 (ip), vehicle: saline) is 1 of 10.
As to `N=[N+]=CC(=O)OCC(N)C(=O)O` (stereo not given), under “T/C endpoint: median tumor weight (est.), dose: 3.12 mg/kg/injection, schedule: Q07DX005 (ip), vehicle: clinical formulation, evaluated on day 30”, the T/C was 140 % of control. Moreover, the survivor count by setting is: (T/C endpoint: median tumor weight (est.), dose: 50.0 mg/kg/injection, schedule: Q07DX005 (ip), vehicle: water) 6 of 10 on day 30; (T/C endpoint: median tumor weight (est.), dose: 100.0 mg/kg/injection, schedule: Q07DX005 (ip), vehicle: water) 0 of 10 on day 30 and 1 of 10 on day 30.
With `CC1C(=O)c2cc3c(cc2CCN(C)Cc2c1ccc1c2OCO1)OCO3` (stereo not given), the survivor count by setting is: (T/C endpoint: median tumor weight change, dose: 50.0 mg/kg/injection, schedule: Q01DX001 (ip), vehicle: saline with Tween-80) 1 of 10 on day 28; (T/C endpoint: median tumor weight change, dose: 100.0 mg/kg/injection, schedule: Q01DX001 (ip), vehicle: saline with Tween-80) 1 of 10 on day 28.
`CC1=C2CC(C)(C)/C=C\C(=O)/C(C)=C\C3=C[C@H](C)C[C@]3(O2)C1=O`: the T/C runs as follows: (T/C endpoint: median tumor weight (est.), dose: 3.0 mg/kg/injection, schedule: Q07DX005 (ip), vehicle: saline, evaluated on day 30) 145 % of control; (T/C endpoint: median tumor weight (est.), dose: 24.0 mg/kg/injection, schedule: Q07DX005 (ip), vehicle: saline, evaluated on day 30) 130 % of control.
For the molecule `Nc1nc2n[nH]nc2c(=O)[nH]1`, the survivor count is listed as 0 of 10 on day 30 (T/C endpoint: median tumor weight change, dose: 1000.0 mg/kg/injection, schedule: Q01DX001 (ip), vehicle: suspension in saline) and 0 of 10 on day 30 (T/C endpoint: median tumor weight change, dose: 2000.0 mg/kg/injection, schedule: Q01DX001 (ip), vehicle: suspension in saline).

(Values after PubChem BioAssay AID220 (DTP/NCI, 2004).)
